Measured values from patent CN111393528A.
These are yes or no findings as the source states them, for the method shown. Some binding calls cover weakened binding; strength is not graded here.

By UniProt entry, the sequences of proteins in these tests, tags left out. Residues count along the entry.
UniProt P15328, residues 25-234: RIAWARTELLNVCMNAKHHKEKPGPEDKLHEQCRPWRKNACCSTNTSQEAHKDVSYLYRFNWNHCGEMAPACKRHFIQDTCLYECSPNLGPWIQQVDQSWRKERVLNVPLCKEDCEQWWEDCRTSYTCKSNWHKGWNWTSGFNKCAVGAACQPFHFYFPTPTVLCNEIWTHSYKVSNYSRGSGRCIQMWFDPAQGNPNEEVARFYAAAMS

Experiments:
[1] = target: FRα-GFP fusion expressed on CHO cells transiently transfected with pEGFPN1-FRα (UniProt P15328); assay: cell immunofluorescence on CHO cells transfected with pEGFPN1-FRα
[2] = target: FRα-GFP fusion expressed on CHO cells transiently transfected with pEGFPN1-FRα (UniProt P15328); assay: cell immunofluorescence on CHO cells transfected with pEGFPN1-FRα, rabbit anti-His + PE goat anti-rabbit IgG

binding [1]: binds
binding [2]: binds
B1: FR ScFv (靶向叶酸受体α的单链抗体) (scFv, not shown: small tags and cut ends)
scFv: QAQLLESGGGLVQPGGSLRLSCAASGFTFSSYAMSWVRQAPGKGLEWVSAISGSGGSTYYADSVEGRFTISRDNSKNTLYLQMNSLRAEDTAVYYCARRAVGRGWRFWGQGTMVTVSSGGGGSGGGGSGGGGSDIVLTQSPSASGTPGQRVTISCSGSSSNIGSNYVYWYQQLPGTAPKLLIYRNNQRPSGVSDRFSGSKSGTSASLAISGLRSEDEADYYCAAWDDSLSARVFGGGTKVDIKR
